Record: PubChem BioAssay AID1259308 (NCATS, 2017)
Shown is an unselected part of about 59,000 reagents tested. Over the whole deposit, about 1,510 (2.6%) were called active. 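Calls use total luciferase alone and ignore viability, so some active siRNAs may act by altering cell number.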 Unmarked entries are inactive. Not all columns of the deposit are shown.

Assay: 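Candidate targets for better recombinant protein yield in mammalian cells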 (primary screen)
Cells: human HEK293 embryonic kidney cells stably expressing firefly luciferase (HEK-CMV-Luc2-Hygro)
Reagents: single siRNA against human genes, 0.8 pmol siRNA per well
Duration: 72 h
Measured: 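Reporter luminescence and viable-cell signal on separate replicate plates, given as percent of non-targeting control and median/MAD z-scores, plus per-cell luciferase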
Direction: total luciferase, z-score: higher = more reporter protein produced
Rule for the call: 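Active when the median/MAD z-score for overall luciferase is greater than 3; a gene was taken forward for validation with new siRNAs if at least two of its three siRNAs passed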
Meaning of the calls: active = raised luciferase; inactive = no rise

What did the screen give for OR4Q3 [SID160768068]?
total luciferase, z-score: 0.634

For OR4Q3 [SID160768069], how do the results read?
total luciferase, z-score: 0.226

What did the screen give for OR4Q3 [SID160768070]?
total luciferase, z-score: -0.134

For ZP2 [SID160719338], what was measured?
total luciferase, z-score: -0.483

For ZP2 [SID160719340], how do the results read?
total luciferase, z-score: 1.31

How did the screen score ZP2 [SID160731899]?
total luciferase, z-score: 1.19

Reformatted: results already given.
{"Gene": "OR4Q3", "PubChem SID": "SID160768069", "total luciferase, z-score": 0.226}
{"Gene": "OR4Q3", "PubChem SID": "SID160768070", "total luciferase, z-score": -0.134}

More reagents:
What did the screen give for CFAP126 [SID160762534]?
total luciferase, z-score: 0.148

For CFAP126 [SID160762535], how do the results read?
total luciferase, z-score: -0.247

What is on record for CFAP126 [SID160762536]?
total luciferase, z-score: -1.33

For PARD3 [SID160745013], what was measured?
total luciferase, z-score: -0.135

With PARD3 [SID160745014], what does the deposit list?
total luciferase, z-score: -0.936

What did the screen give for PARD3 [SID160745015]?
total luciferase, z-score: -0.208
